Measured values taken from paper PMC7782162, “Inhibition of the β-carbonic anhydrase from the protozoan pathogen Trichomonas vaginalis with sulphonamides” (Journal of Enzyme Inhibition and Medicinal Chemistry, 2020).

Target: T1, TvaCA1 (Trichomonas vaginalis, UniProt A2ENQ8)
T1 construct: gene TVAG_005270; recombinant from E. coli BL21 Star (DE3), Ni2+-NTA purified; beta-CA homodimer with two active sites
T1 sequence (A2ENQ8 1-182): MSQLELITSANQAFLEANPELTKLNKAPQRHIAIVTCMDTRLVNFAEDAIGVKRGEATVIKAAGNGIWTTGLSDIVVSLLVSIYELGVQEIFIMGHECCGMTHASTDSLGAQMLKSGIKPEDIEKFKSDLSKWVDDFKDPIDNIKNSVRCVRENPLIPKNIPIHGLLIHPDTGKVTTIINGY
Assay: stopped-flow CO2 hydrase assay
Assay type: biochemical
Conditions: read-out: KI^a (nM) / TvaCA1^c

Ki: > 50000 nM
Compound: CCN[C@H]1C[C@H](C)S(=O)(=O)c2sc(S(N)(=O)=O)cc21 [DZA, Dorzolamide]
